Consider 26 compounds from PubChem BioAssay AID330 (DTP/NCI, 2004).

The list does not hold the whole screen: it gathers tests that were run many times, whatever their T/C, doses with no T/C, and many T/C values between a quarter and a half above the control. Other doses and runs of a compound stand elsewhere. T/C gives the treated animals as a percentage of the vehicle group. Some entries give survivors of the animals treated and no T/C: the source holds a T/C of zero for them, seemingly a mark for toxic or unscored doses. Some doses without a T/C left all or most animals alive at the check, yet need not have been tolerated: survival well below the control is almost never listed, so the zero probably covers shortened survival too. Counts of survivors are from the toxicity check (mostly the fifth day) where no day follows; animals may have died later. Schedule codes are those of the source, read here as Q, the interval in days (D) or hours (H), X, the number of doses. Some entries hold several experiments; their values stand side by side, smallest first. Where survival is the endpoint, this PubChem deposit counts one and a half times the control or more as active, and values a quarter to a half above the control carry no call in these data; other NCI protocols may use other cut-offs. Some T/C values carry the count of animals alive at the toxicity check (mostly the fifth day); where none is given, no animal had died by that day.

This experiment has as its system P388 leukemia ip, CD2F1 mice, survival T/C. Put plainly: NCI In Vivo Anticancer Drug Screen. Data for tumor model P388 Leukemia (intraperitoneal) in CD2F1 (CDF1) mice. Particulars: T/C endpoint: median survival time, higher T/C = longer survival.
Where [1] appears, read: dose: 240.0 mg/kg/injection, schedule: Q01DX005 (ip), vehicle: saline with Tween-80.
[2] abbreviates: dose: 120.0 mg/kg/injection, schedule: Q01DX005 (ip), vehicle: Klucel (hydroxypropylcellulose) (HPC).
[3] abbreviates: dose: 240.0 mg/kg/injection, schedule: Q01DX005 (ip), vehicle: Klucel (hydroxypropylcellulose) (HPC).
[4] abbreviates: dose: 200.0 mg/kg/injection, schedule: Q01DX005 (ip), vehicle: Klucel (hydroxypropylcellulose) (HPC).
Where [5] appears, read: dose: 200.0 mg/kg/injection, schedule: Q01DX005 (ip), vehicle: saline with Tween-80.
Setting [6] is: dose: 400.0 mg/kg/injection, schedule: Q04DX003 (ip), vehicle: Klucel (hydroxypropylcellulose) (HPC).
The mark [7] stands for this setting: dose: 200.0 mg/kg/injection, schedule: Q01DX001 (ip), vehicle: saline with Tween-80.

For the compound `CC1(C)C(=O)C=CC2(C)C1CC(O)C1(C)C2CCC2(C)C(c3ccoc3)OC(=O)C3OC321` (stereo not drawn), where the note is “dose: 24.0 mg/kg/injection, schedule: Q01DX009 (ip), vehicle: Klucel (hydroxypropylcellulose) (HPC)”, the survivor count is given as 6 of 6.

With `C(=N\NC1=NCCN1)/c1ccc(-c2cn3cc(/C=N/NC4=NCCN4)ccc3n2)cc1`, the T/C (dose: 120.0 mg/kg/injection, schedule: Q01DX005 (ip), vehicle: saline with Tween-80) is 130 % of control [5 of 6 alive]. The survivor count under setting [1] is reported as 1 of 6.

Turning to `C1=C(C2CCCC3[C@@H]4C[C@@H](CN23)C2CCCCN2C4)CCC2[C@H]3C[C@H](CN12)C1CCCCN1C3` (stereo partly drawn), the survivor count runs as follows: (dose: 60.0 mg/kg/injection, schedule: Q01DX005 (ip), vehicle: Klucel (hydroxypropylcellulose) (HPC)) 0 of 6 and 1 of 6; under setting [2], 0 of 6; under setting [3], 0 of 6.

As for `COc1ccc(C[n+]2ccc3c([N+](=O)[O-])cccc3c2)cc1`, for the setting “dose: 60.0 mg/kg/injection, schedule: Q01DX005 (ip), vehicle: saline + Tween-80 + alcohol”, the T/C is 134 and 138 % of control. Moreover, the survivor count was 0 of 6 (dose: 120.0 mg/kg/injection, schedule: Q01DX005 (ip), vehicle: saline + Tween-80 + alcohol) and 0 of 6 (dose: 240.0 mg/kg/injection, schedule: Q01DX005 (ip), vehicle: saline + Tween-80 + alcohol).

Consider `O=C(NO)C1CCCCC1O` (stereo not drawn), for which the survivor count by setting is: (dose: 100.0 mg/kg/injection, schedule: Q04DX003 (ip), vehicle: saline) 6 of 6; (dose: 200.0 mg/kg/injection, schedule: Q04DX003 (ip), vehicle: saline) 6 of 6.

Turning to `C[CH2][Sn]([CH2]C)[O][Sn]([Cl])([CH2]C)[CH2]C`, the survivor count was 1 of 6 (dose: 25.0 mg/kg/injection, schedule: Q01DX005 (ip), vehicle: Klucel (hydroxypropylcellulose) (HPC)); 0 of 6 (dose: 50.0 mg/kg/injection, schedule: Q01DX005 (ip), vehicle: Klucel (hydroxypropylcellulose) (HPC)); 0 of 6 (dose: 100.0 mg/kg/injection, schedule: Q01DX005 (ip), vehicle: Klucel (hydroxypropylcellulose) (HPC)); 0 of 6 under setting [4].

On to `CC[C@@H](C)C(=O)O[C@H]1[C@H](O)[C@H]2[C@@H](CN3C[C@@H](C)CC[C@H]3[C@@]2(C)O)[C@@H]2CC34O[C@]5(O)[C@@H](OC(=O)[C@@](C)(O)CC)CC[C@@]3(C)[C@@H]5[C@@H](OC(C)=O)[C@@H](OC(C)=O)[C@H]4[C@@]21O`, for which the survivor count reads like this: (dose: 0.2 mg/kg/injection, schedule: Q01DX005 (ip), vehicle: saline) 0 of 6; (dose: 0.4 mg/kg/injection, schedule: Q01DX005 (ip), vehicle: saline) 0 of 6; (dose: 0.8 mg/kg/injection, schedule: Q01DX005 (ip), vehicle: saline with Tween-80) 0 of 6; (dose: 1.6 mg/kg/injection, schedule: Q01DX005 (ip), vehicle: saline with Tween-80) 0 of 6; (dose: 3.12 mg/kg/injection, schedule: Q01DX005 (ip), vehicle: saline with Tween-80) 0 of 6; (dose: 6.25 mg/kg/injection, schedule: Q01DX005 (ip), vehicle: saline with Tween-80) 0 of 6. Further, the survivor count (dose: 12.5 mg/kg/injection, schedule: Q01DX005 (ip), vehicle: saline with Tween-80) was 0 of 6; the survivor count (dose: 50.0 mg/kg/injection, schedule: Q01DX005 (ip), vehicle: saline with Tween-80) is 0 of 5; the survivor count (dose: 100.0 mg/kg/injection, schedule: Q01DX005 (ip), vehicle: saline with Tween-80) is reported as 0 of 5; the survivor count under setting [5] was 0 of 5.

With `N#CC1CCN(Cc2ccccc2)C(C#N)C1` (stereo not drawn), the survivor count runs as follows: under setting [2], 0 of 6; under setting [3], 0 of 6.

Take `CN(C)C1C(=O)C(C(N)=O)=C(O)C2(O)C(=O)C3=C(O)c4c(O)cccc4C(C)(O)C3CC12.[Cl][Sb]([Cl])[Cl]` (stereo not drawn): under setting [5], the survivor count is listed as 0 of 6.

Turning to `CCOc1cc2c(cc1C(C)(C)c1ccc(OC)cc1)OCO2`, the T/C is 125 % of control under setting [1] and 135 % of control (dose: 480.0 mg/kg/injection, schedule: Q01DX005 (ip), vehicle: saline with Tween-80).

On to `CCN(CCC#N)C(=O)c1cccc([N+](=O)[O-])c1`, for which the survivor count under setting [3] is on record as 1 of 6.

On to `CNC(=O)Nc1nc2ccccc2[nH]1`, for which the T/C reads like this: (dose: 200.0 mg/kg/injection, schedule: Q04DX003 (ip), vehicle: Klucel (hydroxypropylcellulose) (HPC)) 128 % of control; under setting [6], 130 % of control.

On to `COC1=C(OC)C(=O)C(CO)=CC1=O`, for which the survivor count is listed as 0 of 6 (dose: 30.0 mg/kg/injection, schedule: Q01DX005 (ip), vehicle: saline); 0 of 6 (dose: 60.0 mg/kg/injection, schedule: Q01DX005 (ip), vehicle: saline); 0 of 6 (dose: 120.0 mg/kg/injection, schedule: Q01DX005 (ip), vehicle: saline); 0 of 6 (dose: 240.0 mg/kg/injection, schedule: Q01DX005 (ip), vehicle: saline).

With `COC1=C(OC)C(=O)C(C/C=C(\C)CC/C=C(\C)CC/C=C(\C)CC/C=C(\C)CC/C=C(\C)CC/C=C(\C)CC/C=C(\C)CC/C=C(\C)CC/C=C(\C)CCC=C(C)C)=C(C)C1=O`, the survivor count is 6 of 6 (dose: 12.5 mg/kg/injection, schedule: Q01DX009 (ip), vehicle: saline with Tween-80) and 6 of 6 (dose: 50.0 mg/kg/injection, schedule: Q01DX009 (ip), vehicle: saline with Tween-80).

As to `COc1cccc(C2CC(C)(O)Oc3cc4c(cc32)OCO4)c1` (stereo not drawn), the survivor count runs as follows: under setting [2], 6 of 6; under setting [3], 6 of 6.

`CCCC[C@H]1C(=O)O[C@H](C)[C@H](NC(=O)c2cccc(NC=O)c2O)C(=O)O[C@@H](C)[C@@H]1OC(=O)CC(C)C`: the survivor count (dose: 0.5 mg/kg/injection, schedule: Q01DX009 (ip), vehicle: Klucel (hydroxypropylcellulose) (HPC)) is reported as 5 of 6; the survivor count (dose: 1.0 mg/kg/injection, schedule: Q01DX009 (ip), vehicle: Klucel (hydroxypropylcellulose) (HPC)) was 6 of 6; the survivor count (dose: 2.0 mg/kg/injection, schedule: Q01DX009 (ip), vehicle: Klucel (hydroxypropylcellulose) (HPC)) is 0 of 6 and 4 of 6; the survivor count (dose: 4.0 mg/kg/injection, schedule: Q01DX009 (ip), vehicle: Klucel (hydroxypropylcellulose) (HPC)) is 0 of 6.

`[C-]#[O+].[C-]#[O+].[CH3][Sn]([CH3])[c]1ccccc1.[Fe+5].[c-]1[c-][c-][cH-][c-]1`: the survivor count (dose: 400.0 mg/kg/injection, schedule: Q04DX003 (ip), vehicle: saline with Tween-80) is recorded as 2 of 6.

Consider `Cc1nnc2c3nccn3ccn12`, for which the survivor count (dose: 100.0 mg/kg/injection, schedule: Q01DX001 (ip), vehicle: saline with Tween-80) was 3 of 6; the survivor count under setting [7] is 0 of 6; the survivor count (dose: 400.0 mg/kg/injection, schedule: Q01DX001 (ip), vehicle: saline with Tween-80) is 0 of 6.

`COC(=O)NC(NC(=O)OC)C(F)(F)C(NC(=O)OC)NC(=O)OC`: the survivor count under setting [3] is 1 of 6.

On to `CCCCCCCCCCCC(=O)NCCc1ccc(O)c(O)c1`, for which, under setting [6], the T/C was 126 % of control.

In the case of `O=S1(=O)CCC2CCCCC2C1` (stereo not drawn), the survivor count (dose: 25.0 mg/kg/injection, schedule: Q01DX009 (ip), vehicle: saline with Tween-80) is on record as 3 of 6.

Turning to `CC(=O)NCCc1nc(-c2nc(C(=O)NCCCCN)cs2)cs1`, for the setting “dose: 200.0 mg/kg/injection, schedule: Q01DX009 (ip), vehicle: water”, the T/C is 137 % of control.

Turning to `NNc1n[nH]c(=O)c2cnccc12`, the survivor count is given as 2 of 6 (dose: 200.0 mg/kg/injection, schedule: Q04DX002 (ip), vehicle: saline with Tween-80) and 0 of 6 (dose: 400.0 mg/kg/injection, schedule: Q04DX002 (ip), vehicle: saline with Tween-80).

With `COc1cc(N=Nc2ccccc2)cc(/C=N\NC(=S)Nc2ccc(C)cc2)c1O`, the survivor count under setting [5] is reported as 0 of 6.

`CCN(CC)P(Cl)(C1=C(Cl)C(=O)C(C#N)=C(C#N)C1=O)(N(CC)CC)N(CC)CC`: under setting [7], the survivor count is listed as 6 of 6.

For `COc1ccc(/C=C/C(=O)c2c(N)n(C)c(=O)n(C)c2=O)cc1`, the survivor count under setting [4] is listed as 6 of 6.
